Results are given in words; binding and its absence hold for the method and conditions named. Binding seen in cells or lysates may run through a third protein. Some binding calls cover weakened binding; strength is not graded here. Where a sequence is shown, tags or fusion partners need not be part of it.
Target: T1, SPRY1 (Sprouty RTK signaling antagonist 1), mouse, 3×FLAG-tagged (mouse) (UniProt Q9QXV9)
T1 sequence: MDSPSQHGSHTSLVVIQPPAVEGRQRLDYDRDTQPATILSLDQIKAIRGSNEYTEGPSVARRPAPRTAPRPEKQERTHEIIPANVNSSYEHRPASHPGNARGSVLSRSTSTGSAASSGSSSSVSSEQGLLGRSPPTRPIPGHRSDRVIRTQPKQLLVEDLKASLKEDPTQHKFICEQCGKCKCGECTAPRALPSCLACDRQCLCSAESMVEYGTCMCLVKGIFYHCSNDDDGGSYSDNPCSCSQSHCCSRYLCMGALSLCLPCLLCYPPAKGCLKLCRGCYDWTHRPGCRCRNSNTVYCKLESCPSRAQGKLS
Test: co-IP; mouse keratinocytes transfected with FLAG-spry1, HA-dgat2 or both, 72 h; RIPA lysis buffer with protease and phosphatase inhibitors; anti-FLAG antibody-conjugated magnetic beads, 4°C, 4 h; western blot

B1: DGAT2 (diacylglycerol acyltransferase 2), mouse, 3×HA-tagged (enzyme, UniProt Q9DCV3 1-388)
chain: MKTLIAAYSGVLRGERRAEAARSENKNKGSALSREGSGRWGTGSSILSALQDIFSVTWLNRSKVEKQLQVISVLQWVLSFLVLGVACSVILMYTFCTDCWLIAVLYFTWLAFDWNTPKKGGRRSQWVRNWAVWRYFRDYFPIQLVKTHNLLTTRNYIFGYHPHGIMGLGAFCNFSTEATEVSKKFPGIRPYLATLAGNFRMPVLREYLMSGGICPVNRDTIDYLLSKNGSGNAIIIVVGGAAESLSSMPGKNAVTLKNRKGFVKLALRHGADLVPTYSFGENEVYKQVIFEEGSWGRWVQKKFQKYIGFAPCIFHGRGLFSSDTWGLVPYSKPITTVVGEPITVPKLEHPTQKDIDLYHAMYMEALVKLFDNHKTKFGLPETEVLEVN
binding: binds
